Assay results published in paper PMC4307302.
These are yes or no findings as the source states them, for the method shown. Binding seen in cells or lysates may run through a third protein. Some binding calls cover weakened binding; strength is not graded here.

The chains behind the UniProt entries cited, without tags or fusion partners.
UniProt P37238: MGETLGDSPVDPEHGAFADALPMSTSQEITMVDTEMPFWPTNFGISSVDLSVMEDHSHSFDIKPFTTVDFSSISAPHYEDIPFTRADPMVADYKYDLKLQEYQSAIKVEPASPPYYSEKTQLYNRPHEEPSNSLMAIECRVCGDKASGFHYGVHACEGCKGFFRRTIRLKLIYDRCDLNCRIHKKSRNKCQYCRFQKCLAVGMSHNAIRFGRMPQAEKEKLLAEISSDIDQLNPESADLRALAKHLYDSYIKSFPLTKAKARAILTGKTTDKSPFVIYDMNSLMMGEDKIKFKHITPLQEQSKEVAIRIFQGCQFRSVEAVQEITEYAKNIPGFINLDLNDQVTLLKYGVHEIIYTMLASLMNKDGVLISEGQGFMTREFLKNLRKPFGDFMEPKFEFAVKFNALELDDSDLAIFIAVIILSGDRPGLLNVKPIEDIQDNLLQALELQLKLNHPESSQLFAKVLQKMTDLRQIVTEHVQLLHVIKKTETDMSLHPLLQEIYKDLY

Molecular target: T1, Peroxisome proliferator-activated receptor gamma coactivator 1 (mouse (endogenous in C2C12)) (UniProt O70343)
T1 sequence: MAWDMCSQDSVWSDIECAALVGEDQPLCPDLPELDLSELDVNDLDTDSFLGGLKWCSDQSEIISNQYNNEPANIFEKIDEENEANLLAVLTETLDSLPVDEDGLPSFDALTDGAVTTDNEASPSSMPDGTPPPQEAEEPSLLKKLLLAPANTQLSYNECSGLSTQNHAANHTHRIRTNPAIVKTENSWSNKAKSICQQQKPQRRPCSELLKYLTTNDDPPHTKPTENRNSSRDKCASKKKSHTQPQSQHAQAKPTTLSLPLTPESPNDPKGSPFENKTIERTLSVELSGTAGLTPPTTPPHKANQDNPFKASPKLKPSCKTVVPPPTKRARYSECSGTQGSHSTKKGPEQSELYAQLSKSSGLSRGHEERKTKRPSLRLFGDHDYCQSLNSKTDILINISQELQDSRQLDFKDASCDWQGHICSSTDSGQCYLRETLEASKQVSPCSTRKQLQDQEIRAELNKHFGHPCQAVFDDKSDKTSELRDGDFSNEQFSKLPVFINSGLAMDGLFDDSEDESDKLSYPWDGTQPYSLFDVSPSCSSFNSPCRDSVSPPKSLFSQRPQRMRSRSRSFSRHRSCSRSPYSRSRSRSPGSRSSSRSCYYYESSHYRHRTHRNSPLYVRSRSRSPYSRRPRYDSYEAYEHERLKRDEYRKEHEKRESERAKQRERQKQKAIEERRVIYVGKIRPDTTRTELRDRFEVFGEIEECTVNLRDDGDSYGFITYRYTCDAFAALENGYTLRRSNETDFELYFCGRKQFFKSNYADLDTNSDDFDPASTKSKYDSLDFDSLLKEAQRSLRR
Assay: co-IP; lysates of differentiated C2C12 cells incubated overnight with PGC-1α antibody (Abcam) and protein A/G plus agarose beads; eluates blotted for PPARγ, nitrotyrosine and PGC-1α; cells treated 24 h with SNP (30 μM), Hcy (250 μM) and Hcy thiolactone (1 mM) as indicated

In the case of “Peroxisome proliferator-activated receptor gamma (from UniProt P37238 1-505)”, the binding was “binds”.
